Results: PubChem BioAssay AID1471 (National Center for Advancing Translational Sciences (NCATS), 2008)
Several values for one entry are separate records, joined by “and”; a condition that tells them apart may be missing. Equal entries are not always repeated. The campaign covered roughly 230,000 compounds. About 310 (0.13%) were called active. The inconclusive results got no clear call from the source; some entries with a clear call stand among them for comparison. Calls come from the whole dose curve; as a rule, active = well fitted activation curve with a large enough effect; inconclusive = small, poorly fitted or top-dose-only effect; inactive = no such curve, though single readings can be large or run the other way. Where the call is inconclusive, the potency comes from a doubtful curve fit.

assay: qHTS Multiplex Assay to Identify Dual Action Probes in a Cell Model of Huntington: Cytoprotection (ATP); settings: PC12 HTT-Q103 induced, ATP luminescence, 40 h; cytoprotection (ATP increase): at 56.4 µM (top of the series) unless noted; note: nearly all actives have a fitted effect of over 45% in size;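 for cytoprotection (ATP increase): toxic huntingtin expression switched on by the ecdysone agonist tebufenozide; % of control where 0% means no effect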
Procedure, shortened: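 Readout: ATPlite luminescence (ATP level). Model: stable PC12, inducible Htt exon1 Q103-GFP. Inducer: tebufenozide, 100 nM final. Compounds: dose series. No G418 in medium.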
Potency is the fitted concentration of half-maximal effect.

Which Potency does the source give for `COc1ccc(CN(CCC(c2ccccc2)c2ccco2)C(=O)c2ccco2)cc1` (stereo not given) here?
The Potency was inconclusive: 5.62 µM [activator, single point].

With `N=C(N)SCC(=O)O` as the compound, how does the cytoprotection (ATP increase) read?
The cytoprotection (ATP increase) was inactive: -16.7% [at 10 µM].

With `C=CCOc1c(CNc2nccs2)cccc1OCC` as the compound, how does the Potency read?
The Potency was “inactive”.

For `COc1ccc(C(=O)CSC#N)cc1OC`, which Potency is on record?
The Potency was inconclusive: 5.62 µM [activator, single point].

With `O=C(Cc1cccs1)N(c1ccc(F)cc1)C1(C(=O)NC2CCCCC2)CCCC1` as the compound, how does the Potency read?
The Potency was inconclusive: 0.794 µM [activator, partial curve].

With `O=[N+]([O-])c1c(NCCCO)cc(Sc2ccc(Cl)cc2)c2nonc12` as the compound, how does the cytoprotection (ATP increase) read?
Its cytoprotection (ATP increase) is inactive: -4.79% [at 10 µM].

Which Potency does the source give for `Cc1cccc(CN(C(=S)Nc2c(C)cccc2C)c2cccnc2)c1` here?
Its Potency is “inactive”.

Which Potency does the source give for `COc1cc(/C=N/O)ccc1Oc1ccc([N+](=O)[O-])cc1[N+](=O)[O-]` here?
Its Potency is inconclusive: 35.5 µM [activator, single point].

With `O=C(N/N=C/c1ccc(OCc2cnc(Cl)s2)cc1)c1ccncc1` as the compound, how does the Potency read?
Its Potency is inconclusive: 5.62 µM [activator, single point].

For `Cn1cccc1C(=O)N1CCC2(CC1)CN(C(=O)Nc1ccccc1)C2`, which Potency is on record?
The Potency was inconclusive: 0.0562 µM [activator, full curve, poor fit].

For `CC(C)NC(=O)c1cc(C(=O)c2cc(Cl)ccc2O)coc1=N`, which Potency is on record?
The Potency was “inactive”.

For `Cc1cc(C(C)(C)C)oc1C(=O)N(CC(=O)NC1CCCC1)Cc1ccccc1Cl`, which cytoprotection (ATP increase) is on record?
The cytoprotection (ATP increase) was inactive: 16.8% [at 10 µM].

Which Potency does the source give for `CC1CCCN(C(=O)c2ccc(CNc3c(N4CCCCC4)c(=O)c3=O)cc2)C1` (stereo not given) here?
Its Potency is “inactive”.

Which Potency does the source give for `C[N+]12CCC(CC1)[C@@H](OC(=O)C(O)(c1ccccc1)c1ccccc1)C2` here?
The Potency was inconclusive: 3.55 µM [activator, partial curve].

For `CC(C)C(NC(=O)c1ccccc1)c1nnc(SCC(=O)Nc2nccs2)n1C` (stereo not given), which Potency is on record?
The Potency was inconclusive: 0.708 µM [activator, single point].

For `Cc1ccc(NC(=O)Cc2noc3ccccc23)cc1`, which cytoprotection (ATP increase) is on record?
Its cytoprotection (ATP increase) is inactive: 22.2% [at 10 µM].

Which Potency does the source give for `COc1cccc(N/C(SCc2cccc([N+](=O)[O-])c2)=C(/C#N)C(N)=O)c1` here?
Its Potency is inconclusive: 25.1 µM [activator, single point].

With `CC(=O)Nc1ccc(S(=O)(=O)Nc2cccc(NC(=O)c3ccco3)c2)cc1` as the compound, how does the Potency read?
The Potency was inconclusive: 0.398 µM [activator, single point].

Which Potency does the source give for `Cc1ccc(C)c(OCCCC(C)(C)C(=O)O)c1` here?
The Potency was inconclusive: 39.8 µM [activator, single point] and inconclusive: 794 nM [activator, single point] and inconclusive: 6.31 µM [activator, single point].

Which cytoprotection (ATP increase) does the source give for `O=C(CCc1nc2ccccc2c(=O)[nH]1)NCc1ccco1` here?
Its cytoprotection (ATP increase) is inactive: -3.36% [at 10 µM].

For `CCOC(=O)c1[nH]ncc1CN1CCCC(C(=O)c2ccc(SC)cc2)C1` (stereo not given), which Potency is on record?
The Potency was “inactive”.

For `Cc1ccc(O)c(NC(=O)c2noc3c2CCCCC3)c1`, which Potency is on record?
Its Potency is “inactive”.

Which Potency does the source give for `O=C(N[C@@H](CO)[C@@H](O)c1ccc([N+](=O)[O-])cc1)C(Cl)Cl` here?
The Potency was inconclusive: 0.0447 µM [activator, full curve, poor fit].

For `COC(=O)N1CCC2(CC1)CN(c1ccncc1)C2`, which Potency is on record?
The Potency was inconclusive: 35.5 µM [activator, single point].

With `Cc1ccccc1NC(=O)CSc1nc(N)c(C#N)c(-c2cccs2)c1C#N` as the compound, how does the cytoprotection (ATP increase) read?
Its cytoprotection (ATP increase) is inactive: 17.7% [at 0.074 µM].

Which Potency does the source give for `OCCCc1nc2ccccc2[nH]1` here?
Its Potency is inconclusive: 5.01 µM [activator, single point].

With `O=C(CCCN1CCOCC1)c1ccc2c(c1)OCCO2` as the compound, how does the Potency read?
Its Potency is “inactive”.

Which Potency does the source give for `C[C@H]1O[C@@H](O[C@H]2[C@@H](O)C[C@H](O[C@H]3[C@@H](O)C[C@H](O[C@H]4CC[C@]5(C)C6CC[C@]7(C)[C@@H](C8=CC(=O)OC8)CC[C@]7(O)C6CC[C@@H]5C4)O[C@@H]3C)O[C@@H]2C)C[C@H](O)[C@@H]1O` (stereo not given in full) here?
Its Potency is inconclusive: 0.0891 µM [activator, full curve, poor fit].

For `COC(=O)C(NS(=O)(=O)c1ccc(F)cc1)c1ccccc1` (stereo not given), which Potency is on record?
The Potency was inconclusive: 0.1 µM [activator, full curve, poor fit].

For `CCN(CC)S(=O)(=O)c1cccc(NC(=O)c2cncc(Br)c2)c1`, which Potency is on record?
Its Potency is inconclusive: 0.891 µM [activator, single point].

Which Potency does the source give for `Brc1ccc2nc(N3CCN(c4ccccc4)CC3)sc2c1` here?
Its Potency is inconclusive: 20 µM [activator, partial curve].

For `Cn1c(=O)c2[nH]c([C@@H]3CC(=O)C[C@H](c4nc5c([nH]4)c(=O)n(C)c(=O)n5C)N3)nc2n(C)c1=O`, which cytoprotection (ATP increase) is on record?
Its cytoprotection (ATP increase) is inactive: 12% [at 10 µM].

With `CCOc1ccc(Oc2ccccc2NC(=O)CCNC(C)=O)cc1` as the compound, how does the Potency read?
The Potency was “inactive”.

Which Potency does the source give for `CO[C@@H]1COC(=O)CCC[C@@H](C)[C@H](OC)COC(=O)[C@H](Cc2ccccc2)NC(=O)C/C=C\[C@H]1C` here?
The Potency was inconclusive: 0.0014 µM [activator, full curve, poor fit].

For `CC(C)n1c(N2CCN(C(=O)Nc3ccc(F)cc3F)CC2)nc2ccccc21`, which Potency is on record?
The Potency was “inactive”.

With `COc1ccccc1NC(=O)/C(C#N)=C/c1c(C)nn(-c2ccc(F)cc2)c1Cl` as the compound, how does the cytoprotection (ATP increase) read?
The cytoprotection (ATP increase) was inactive: 18.7% [at 10 µM].

Which Potency does the source give for `CC(=O)c1ccc(N2CCN(c3ncc(C(F)(F)F)cc3Cl)CC2)cc1` here?
The Potency was inconclusive: 5.62 µM [activator, single point].

For `CC(C)OC(=O)C1C(=O)CC(C)(O)C(C(=O)OC(C)C)C1c1ccc(F)cc1` (stereo not given), which Potency is on record?
The Potency was inconclusive: 3.98 µM [activator, single point].

Which Potency does the source give for `Cc1cc(=O)n2c3ccccc3n(CC(O)CN3CCC(C)CC3)c2c1C#N` (stereo not given) here?
Its Potency is inconclusive: 1.26 µM [activator, single point].

For `CCOc1ccccc1NS(=O)(=O)c1cn(C)nc1C`, which Potency is on record?
Its Potency is inconclusive: 22.4 µM [activator, partial curve, poor fit].

With `O=C(O)c1ccc(CS(=O)(=O)c2cccc(C(F)(F)F)c2)o1` as the compound, how does the cytoprotection (ATP increase) read?
The cytoprotection (ATP increase) was inactive: -10.3% [at 0.074 µM].

For `Cc1noc(C)c1C(=O)N1CCC2(CCN(C(=O)Nc3ccccc3)CC2)CC1`, which Potency is on record?
Its Potency is inconclusive: 1.26 µM [activator, partial curve].

For `C(=C\c1nc(-c2ccccc2)oc1Nc1ccc2ccccc2c1)/c1ccccc1`, which Potency is on record?
Its Potency is inconclusive: 0.562 µM [activator, full curve, poor fit].

With `COc1ccc(/C=N/n2cnn(Cc3ccccc3Cl)c2=S)cc1` as the compound, how does the cytoprotection (ATP increase) read?
Its cytoprotection (ATP increase) is inactive: -11.4% [at 10 µM].

Which cytoprotection (ATP increase) does the source give for `O=C(N/N=C/c1c[nH]c2ccccc12)c1cc(-c2ccc3ccccc3c2)n[nH]1` here?
The cytoprotection (ATP increase) was inactive: -67% [at 10 µM].

With `Nc1c(S(=O)(=O)c2ccccc2)cnc2c(-c3ccc(F)cc3)cnn12` as the compound, how does the Potency read?
Its Potency is “inactive”.

With `Cc1csc(Nc2ccccc2)n1` as the compound, how does the Potency read?
Its Potency is inconclusive: 5.62 µM [activator, single point].

For `COc1cccc(CNC(=S)Nc2cc(C)cc(C)c2)c1`, which Potency is on record?
The Potency was inconclusive: 0.0056 µM [activator, full curve, poor fit].

Which Potency does the source give for `CC(C)(C)NC[C@@H](O)COc1ccccc1C1CCCC1` here?
Its Potency is inconclusive: 0.224 µM [activator, single point].

For `O=C(N/N=C/c1ccc(N2CCCC2)c([N+](=O)[O-])c1)c1cccnc1`, which Potency is on record?
Its Potency is inconclusive: 5.62 µM [activator, single point].

For `CCOC(=O)c1c(N)sc2c(OCC)c(Br)ccc12`, which Potency is on record?
The Potency was inconclusive: 5.01 µM [activator, single point].

Which Potency does the source give for `C[C@@H]1C=CCC(=O)OC[C@H](C)C(=O)OC[C@H]2O[C@H]1C=C[C@@H]2O` here?
The Potency was inconclusive: 0.0562 µM [activator, single point].

With `CSc1nc(C)cc(OCC(=O)N/N=C/c2ccccc2O)n1` as the compound, how does the Potency read?
Its Potency is inconclusive: 1.26 µM [activator, single point].

Which Potency does the source give for `CCCC[n+]1ccn(C2=C([O-])c3ccccc3C(=O)/C2=N\S(=O)(=O)c2ccccc2)c1` here?
The Potency was “inactive”.

With `CC(=O)Nc1ccc(C(=O)OCC(=O)NC2CCCCCCC2)cc1` as the compound, how does the Potency read?
Its Potency is “inactive”.

Which Potency does the source give for `Cc1cc(F)ccc1NC(=O)C1CCCO1` (stereo not given) here?
The Potency was inconclusive: 0.316 µM [activator, partial curve, poor fit].

Which Potency does the source give for `O=C(O)c1ccccc1Nc1cccc(OCc2ccc3ccccc3n2)c1` here?
The Potency was inconclusive: 0.1 µM [activator, partial curve, poor fit].

For `CC(=O)NCCc1c(Cc2ccccc2)[nH]c2ccccc12`, which Potency is on record?
Its Potency is inconclusive: 0.398 µM [activator, partial curve].

Which Potency does the source give for `CCOc1ccc(C2CC(=O)c3c([nH]c(C(=O)OC)c3C)C2)cc1OC` (stereo not given) here?
Its Potency is inconclusive: 0.1 µM [activator, full curve, poor fit].

With `Cc1ccc(Cl)cc1N1CCN(C(=O)c2ccc3nc[nH]c3c2)CC1` as the compound, how does the Potency read?
Its Potency is inconclusive: 5.62 µM [activator, single point].

For `COc1ccc2nc(SCC(=O)Nc3ccc(S(=O)(=O)Nc4onc(C)c4C)cc3)[nH]c2c1`, which Potency is on record?
The Potency was inconclusive: 0.794 µM [activator, single point].

With `O=C(/C=C/c1ccco1)NCCCN1CCN(CCCNC(=O)/C=C/c2ccco2)CC1` as the compound, how does the cytoprotection (ATP increase) read?
Its cytoprotection (ATP increase) is inactive: 1.78% [at 0.074 µM].

Which Potency does the source give for `CCN1C(=O)c2ccccc2S(=O)(=O)c2ccc(C(=O)N3CCOCC3)cc21` here?
The Potency was inconclusive: 3.55 µM [activator, single point].

Which Potency does the source give for `CCNc1ncc2nc(-c3cn(C)c4ccccc34)c(=O)n(Cc3cccs3)c2n1` here?
The Potency was inconclusive: 12.6 µM [activator, partial curve].

Which Potency does the source give for `CCOc1cc(NC(=O)c2cccs2)c(OCC)cc1NC(=O)CCC(=O)NCC1CCCO1` (stereo not given) here?
The Potency was inconclusive: 0.01 µM [activator, full curve, poor fit].
